Assay results taken from the supplement of paper PMC6078165.
Values are relative to the signal before dosing, not to a vehicle control; the signal also falls without drug.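 Fibroblast labels name human fibroblasts: mostly primary ones from tissues such as uterus (C12385, HUF), lung (H6013), bone (Hs27A), adrenal (HADF) and skin (WS1), plus mammary HMF and breast cancer-associated Hs343T. The cancer cells are basal-like or mesenchymal-like triple-negative breast cancer lines. The paper calls a changed response a hit when it shifts by more than 3x the replicate standard deviation. The tissue of the other fibroblasts is not given here.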 Numbered stars: 1 amine (or outer) side, 2 acyl side, 3 side chain; on linkers, the order of the positions; unused ones are H or OH. Bridge positions count the residues as written; N and C are the ends. Square brackets hold non-standard residues; d marks the D form. Peptide text beside a SMILES is read from it. I, II: the chains in the order shown. Actinocin(9to1) = Cc1c2oc3c(C)ccc(C(=O)[*:1])c3nc-2c(C(=O)[*:2])c(N)c1=O; NMeV = CN[C@H](C(=O)O)C(C)C; Sar = CNCC(=O)O

Tested on: Hs578T
Assay: relative JC-1 red fluorescence (viability) vs pre-drug, coculture with fibroblast (fraction); higher = more viable cancer cells
Protocol: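 JC-1 labelled TNBC cells cocultured 1:1 (1,500 cells each) with CellTrace Violet stained primary or stromal fibroblasts in 384-well plates in FluoroBrite medium, treated with one of 42 anticancer drugs at 0.1, 1, 10 or 100 uM. JC-1 red fluorescence (mitochondrial integrity in cancer cells only) was read by plate reader every 8 h for 72 h. Values are normalised to each well's pre-drug value. The stock of one drug was tenfold lower, so its dose labels may be too high.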

Cc1c2oc3c(C)ccc(C(=O)N[C@@H]4C(=O)N[C@H](C(C)C)C(=O)N5CCC[C@H]5C(=O)N(C)CC(=O)N(C)[C@@H](C(C)C)C(=O)O[C@@H]4C)c3nc-2c(C(=O)N[C@@H]2C(=O)N[C@H](C(C)C)C(=O)N3CCC[C@H]3C(=O)N(C)CC(=O)N(C)[C@@H](C(C)C)C(=O)O[C@@H]2C)c(N)c1=O [Dactinomycin] (I: T[dV]P[Sar][NMeV] / II: T[dV]P[Sar][NMeV]; ester I:1-I:C, II:1-II:C; linker I:N-II:N via Actinocin(9to1))
relative JC-1 red fluorescence
Conditions	8 h	16 h	24 h	32 h	40 h	48 h	56 h	64 h	72 h
0.1 µM	0.8586	0.791	0.759	0.737	0.681	0.636	0.633	0.608	0.633
1 µM	0.893	0.76	0.66562	0.6235	0.5564	0.527	0.532	0.516	0.521
10 µM	0.871	0.71	0.621	0.572	0.5	0.46	0.44	0.418	0.422
100 µM	0.888	0.734	0.606	0.546	0.492	0.447	0.428	0.405	0.404

relative JC-1 red fluorescence
Conditions	8 h	16 h	24 h	32 h	40 h	48 h	56 h	64 h	72 h
0.1 µM, coculture fibroblast: C12385	0.82	0.747	0.684	0.596	0.533	0.496	0.468	0.449	0.439
0.1 µM, coculture fibroblast: H6013	0.8426	0.8202	0.781	0.749	0.712	0.707	0.707	0.713	0.697
0.1 µM, coculture fibroblast: H6019	0.78	0.7003	0.675	0.59	0.561	0.538	0.515	0.507	0.493
0.1 µM, coculture fibroblast: H6076	0.903	0.813	0.734	0.701	0.634	0.597	0.536	0.524	0.517
0.1 µM, coculture fibroblast: H6231	0.8629	0.785	0.717	0.673	0.606	0.565	0.529	0.519	0.509
0.1 µM, coculture fibroblast: HADF	0.829	0.772	0.716	0.668	0.617	0.608	0.569	0.571	0.553
0.1 µM, coculture fibroblast: HCFa	0.805	0.7559	0.714	0.667	0.629	0.648	0.642	0.647	0.637
0.1 µM, coculture fibroblast: HCPF	0.904	0.8204	0.7671	0.733	0.678	0.652	0.634	0.607	0.592
0.1 µM, coculture fibroblast: HHSteC	0.834	0.785	0.752	0.731	0.699	0.691	0.697	0.694	0.686
0.1 µM, coculture fibroblast: HMF	0.841	0.7787	0.746	0.729	0.674	0.634	0.594	0.581	0.582
0.1 µM, coculture fibroblast: HPFa	0.856	0.7979	0.74	0.69236	0.653	0.6272	0.606	0.6098	0.5935
0.1 µM, coculture fibroblast: HUF	0.8091	0.7009	0.694	0.595	0.534	0.502	0.482	0.483	0.484
0.1 µM, coculture fibroblast: Hs27A	0.879	0.855	0.828	0.7983	0.753	0.7473	0.73727	0.738	0.696
0.1 µM, coculture fibroblast: Hs343T	0.868	0.7701	0.72	0.696	0.626	0.582	0.538	0.514	0.522
0.1 µM, coculture fibroblast: WS1	0.806	0.714	0.687	0.579	0.516	0.503	0.4752	0.4812	0.487
1 µM, coculture fibroblast: C12385	0.79081	0.692	0.623	0.5412	0.48	0.445	0.413	0.4	0.396
1 µM, coculture fibroblast: H6013	0.832	0.756	0.716	0.687	0.655	0.637	0.605	0.593	0.579
1 µM, coculture fibroblast: H6019	0.7868	0.699	0.691	0.598	0.566	0.553	0.535	0.531	0.517
1 µM, coculture fibroblast: H6076	0.874	0.767	0.689	0.662	0.602	0.579	0.546	0.542	0.54
1 µM, coculture fibroblast: H6231	0.875	0.774	0.718	0.702	0.639	0.607	0.571	0.564	0.568
1 µM, coculture fibroblast: HADF	0.808	0.746	0.698	0.661	0.627	0.602	0.573	0.564	0.548
1 µM, coculture fibroblast: HCFa	0.825	0.727	0.662	0.604	0.549	0.532	0.499	0.491	0.457
1 µM, coculture fibroblast: HCPF	0.899	0.808	0.7656	0.736	0.687	0.659	0.636	0.595	0.596
1 µM, coculture fibroblast: HHSteC	0.846	0.774	0.723	0.69	0.667	0.66	0.673	0.664	0.651
1 µM, coculture fibroblast: HMF	0.854	0.744	0.686	0.67	0.613	0.6	0.568	0.545	0.5288
1 µM, coculture fibroblast: HPFa	0.834	0.743	0.71	0.675	0.644	0.637	0.615	0.607	0.573
1 µM, coculture fibroblast: HUF	0.8465	0.695	0.684	0.588	0.541	0.517	0.49	0.478	0.463
1 µM, coculture fibroblast: Hs27A	0.841	0.7556	0.706	0.661	0.594	0.5866	0.554	0.543	0.497
1 µM, coculture fibroblast: Hs343T	0.865	0.745	0.673	0.62	0.56	0.533	0.505	0.495	0.495
1 µM, coculture fibroblast: WS1	0.756	0.681	0.646	0.566	0.517	0.504	0.488	0.491	0.495
10 µM, coculture fibroblast: C12385	0.7909	0.714	0.67	0.574	0.504	0.467	0.436	0.433	0.435
10 µM, coculture fibroblast: H6013	0.825	0.756	0.684	0.629	0.579	0.567	0.56	0.555	0.541
10 µM, coculture fibroblast: H6019	0.8046	0.735	0.714	0.589	0.543	0.5266	0.498	0.498	0.485
10 µM, coculture fibroblast: H6076	0.9041	0.7647	0.672	0.648	0.611	0.5808	0.544	0.537	0.529
10 µM, coculture fibroblast: H6231	0.857	0.7487	0.724	0.694	0.647	0.622	0.592	0.586	0.584
10 µM, coculture fibroblast: HADF	0.88	0.828	0.749	0.6631	0.618	0.605	0.579	0.574	0.546
10 µM, coculture fibroblast: HCFa	0.83	0.748	0.695	0.637	0.581	0.571	0.563	0.555	0.535
10 µM, coculture fibroblast: HCPF	0.9186	0.822	0.759	0.7217	0.661	0.633	0.603	0.567	0.551
10 µM, coculture fibroblast: HHSteC	0.85736	0.795	0.7484	0.671	0.628	0.607	0.591	0.57	0.554
10 µM, coculture fibroblast: HMF	0.877	0.786	0.741	0.7	0.628	0.592	0.557	0.526	0.515
10 µM, coculture fibroblast: HPFa	0.837	0.764	0.726	0.695	0.693	0.67	0.648	0.649	0.638
10 µM, coculture fibroblast: HUF	0.835	0.734	0.709	0.604	0.541	0.525	0.495	0.496	0.484
10 µM, coculture fibroblast: Hs27A	0.835	0.767	0.697	0.6541	0.639	0.656	0.637	0.64	0.602
10 µM, coculture fibroblast: Hs343T	0.8937	0.742	0.666	0.625	0.547	0.525	0.511	0.506	0.509
10 µM, coculture fibroblast: WS1	0.8218	0.7017	0.66	0.557	0.488	0.468	0.435	0.432	0.43
100 µM, coculture fibroblast: C12385	0.756	0.691	0.6248	0.53	0.472	0.428	0.38	0.37	0.368
100 µM, coculture fibroblast: H6013	0.7832	0.728	0.656	0.608	0.535	0.497	0.47	0.446	0.419
100 µM, coculture fibroblast: H6019	0.684	0.5931	0.576	0.464	0.4178	0.396	0.3645	0.366	0.353
100 µM, coculture fibroblast: H6076	0.8429	0.743	0.682	0.651	0.598	0.576	0.553	0.544	0.529
100 µM, coculture fibroblast: H6231	0.866	0.765	0.686	0.642	0.593	0.5514	0.5113	0.495	0.48
100 µM, coculture fibroblast: HADF	0.842	0.82	0.761	0.674	0.63212	0.619	0.589	0.579	0.539
100 µM, coculture fibroblast: HCFa	0.818	0.784	0.722	0.684	0.64	0.642	0.629	0.624	0.57
100 µM, coculture fibroblast: HCPF	0.856	0.764	0.698	0.668	0.606	0.584	0.561	0.521	0.485
100 µM, coculture fibroblast: HHSteC	0.864	0.818	0.729	0.666	0.634	0.592	0.56	0.539	0.506
100 µM, coculture fibroblast: HMF	0.823	0.732	0.66	0.645	0.5917	0.57	0.547	0.509	0.49
100 µM, coculture fibroblast: HPFa	0.8279	0.787	0.737	0.688	0.668	0.652	0.623	0.63	0.605
100 µM, coculture fibroblast: HUF	0.7696	0.701	0.697	0.606	0.57	0.563	0.533	0.537	0.538
100 µM, coculture fibroblast: Hs27A	0.857	0.79	0.739	0.687	0.587	0.555	0.498	0.478	0.425
100 µM, coculture fibroblast: Hs343T	0.871	0.687	0.566	0.529	0.464	0.436	0.41	0.39	0.389
100 µM, coculture fibroblast: WS1	0.7165	0.636	0.5739	0.469	0.4005	0.382	0.354	0.351	0.344
